Test results taken from paper PMC4905473.
No constants are given. Whether binding was seen depends on the method and setting. In cells and extracts the contact can be indirect. Some entries that bind do so weakly or less than the wild type.

The chains behind the UniProt entries cited, without tags or fusion partners.
UniProt P47811: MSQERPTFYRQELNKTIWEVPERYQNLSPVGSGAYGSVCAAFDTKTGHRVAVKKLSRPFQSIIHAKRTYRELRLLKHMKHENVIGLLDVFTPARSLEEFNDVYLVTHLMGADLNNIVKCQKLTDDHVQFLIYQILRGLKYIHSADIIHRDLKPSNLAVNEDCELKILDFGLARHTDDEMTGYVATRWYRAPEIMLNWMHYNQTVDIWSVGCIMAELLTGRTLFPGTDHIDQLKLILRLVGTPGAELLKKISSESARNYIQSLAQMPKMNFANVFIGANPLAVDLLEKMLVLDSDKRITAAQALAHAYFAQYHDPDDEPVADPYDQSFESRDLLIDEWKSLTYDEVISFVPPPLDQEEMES

Molecular target: T1, mouse MKK3 (mouse (endogenous in liver)) (UniProt O09110)
T1 sequence: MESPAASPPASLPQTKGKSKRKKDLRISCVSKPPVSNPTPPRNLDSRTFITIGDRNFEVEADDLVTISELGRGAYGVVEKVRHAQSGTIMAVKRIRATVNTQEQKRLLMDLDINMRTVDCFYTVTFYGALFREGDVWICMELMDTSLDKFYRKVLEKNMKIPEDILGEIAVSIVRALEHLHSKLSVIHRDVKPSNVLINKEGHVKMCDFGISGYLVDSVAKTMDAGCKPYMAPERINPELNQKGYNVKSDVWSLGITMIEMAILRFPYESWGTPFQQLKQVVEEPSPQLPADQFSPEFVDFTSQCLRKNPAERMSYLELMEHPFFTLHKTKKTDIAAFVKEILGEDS
Experiment: co-IP; IP with anti-MKK3 antibody (Epitomics #1728), protein A/G-Sepharose, Western/IP lysis buffer, WB with anti-p38; livers of paired WT-I and mSIRT1-KI mice

mouse p38 (p38α, MAPK14) (from UniProt P47811 1-360)
binding: binds
